From the supplement of paper PMC12067093, “Discovery and optimisation of a covalent ligand for TRIM25 and its application to targeted protein ubiquitination” (Chemical Science, 2025)
The list shows a part of the results.

Sequences of proteins named here, by UniProt entry; tags and fusion partners are left off. A change or cut given only in a name is not applied to a line headed by its entry.
UniProt P52209: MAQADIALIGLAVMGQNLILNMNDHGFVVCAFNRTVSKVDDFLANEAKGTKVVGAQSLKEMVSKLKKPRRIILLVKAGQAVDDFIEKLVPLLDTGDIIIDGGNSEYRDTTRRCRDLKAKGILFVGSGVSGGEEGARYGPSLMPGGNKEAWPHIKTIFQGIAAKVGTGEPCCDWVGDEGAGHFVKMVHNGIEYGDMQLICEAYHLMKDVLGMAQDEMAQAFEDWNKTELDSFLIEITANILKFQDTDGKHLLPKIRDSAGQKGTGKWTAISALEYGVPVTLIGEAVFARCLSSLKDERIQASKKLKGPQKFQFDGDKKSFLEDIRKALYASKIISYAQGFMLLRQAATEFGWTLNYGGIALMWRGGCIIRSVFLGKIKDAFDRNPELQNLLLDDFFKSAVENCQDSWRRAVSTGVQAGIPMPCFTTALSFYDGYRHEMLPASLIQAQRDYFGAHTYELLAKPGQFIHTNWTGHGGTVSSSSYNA
UniProt O94880: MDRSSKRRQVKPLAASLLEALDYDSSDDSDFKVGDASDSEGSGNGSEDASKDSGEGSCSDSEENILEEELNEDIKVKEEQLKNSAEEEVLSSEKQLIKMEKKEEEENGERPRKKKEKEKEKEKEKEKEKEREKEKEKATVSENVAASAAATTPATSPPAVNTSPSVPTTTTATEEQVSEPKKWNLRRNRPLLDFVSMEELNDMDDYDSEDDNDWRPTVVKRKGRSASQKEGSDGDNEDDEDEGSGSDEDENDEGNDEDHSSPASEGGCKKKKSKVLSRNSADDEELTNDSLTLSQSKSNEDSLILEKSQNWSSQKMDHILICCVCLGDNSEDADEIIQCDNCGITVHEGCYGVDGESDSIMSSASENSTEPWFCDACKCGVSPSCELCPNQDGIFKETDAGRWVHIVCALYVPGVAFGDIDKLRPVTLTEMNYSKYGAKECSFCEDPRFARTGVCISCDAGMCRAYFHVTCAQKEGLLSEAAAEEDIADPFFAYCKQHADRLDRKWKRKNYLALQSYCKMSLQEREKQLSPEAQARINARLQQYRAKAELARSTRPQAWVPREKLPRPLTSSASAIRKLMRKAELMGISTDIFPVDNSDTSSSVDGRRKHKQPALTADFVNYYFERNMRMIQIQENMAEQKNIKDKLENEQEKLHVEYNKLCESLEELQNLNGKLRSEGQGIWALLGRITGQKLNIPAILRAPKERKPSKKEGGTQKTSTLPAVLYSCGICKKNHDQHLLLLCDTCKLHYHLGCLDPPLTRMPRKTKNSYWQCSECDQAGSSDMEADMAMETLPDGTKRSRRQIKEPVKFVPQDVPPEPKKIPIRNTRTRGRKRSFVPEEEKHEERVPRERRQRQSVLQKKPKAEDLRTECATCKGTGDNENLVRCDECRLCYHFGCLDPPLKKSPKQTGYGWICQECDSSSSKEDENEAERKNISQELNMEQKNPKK
UniProt P46020: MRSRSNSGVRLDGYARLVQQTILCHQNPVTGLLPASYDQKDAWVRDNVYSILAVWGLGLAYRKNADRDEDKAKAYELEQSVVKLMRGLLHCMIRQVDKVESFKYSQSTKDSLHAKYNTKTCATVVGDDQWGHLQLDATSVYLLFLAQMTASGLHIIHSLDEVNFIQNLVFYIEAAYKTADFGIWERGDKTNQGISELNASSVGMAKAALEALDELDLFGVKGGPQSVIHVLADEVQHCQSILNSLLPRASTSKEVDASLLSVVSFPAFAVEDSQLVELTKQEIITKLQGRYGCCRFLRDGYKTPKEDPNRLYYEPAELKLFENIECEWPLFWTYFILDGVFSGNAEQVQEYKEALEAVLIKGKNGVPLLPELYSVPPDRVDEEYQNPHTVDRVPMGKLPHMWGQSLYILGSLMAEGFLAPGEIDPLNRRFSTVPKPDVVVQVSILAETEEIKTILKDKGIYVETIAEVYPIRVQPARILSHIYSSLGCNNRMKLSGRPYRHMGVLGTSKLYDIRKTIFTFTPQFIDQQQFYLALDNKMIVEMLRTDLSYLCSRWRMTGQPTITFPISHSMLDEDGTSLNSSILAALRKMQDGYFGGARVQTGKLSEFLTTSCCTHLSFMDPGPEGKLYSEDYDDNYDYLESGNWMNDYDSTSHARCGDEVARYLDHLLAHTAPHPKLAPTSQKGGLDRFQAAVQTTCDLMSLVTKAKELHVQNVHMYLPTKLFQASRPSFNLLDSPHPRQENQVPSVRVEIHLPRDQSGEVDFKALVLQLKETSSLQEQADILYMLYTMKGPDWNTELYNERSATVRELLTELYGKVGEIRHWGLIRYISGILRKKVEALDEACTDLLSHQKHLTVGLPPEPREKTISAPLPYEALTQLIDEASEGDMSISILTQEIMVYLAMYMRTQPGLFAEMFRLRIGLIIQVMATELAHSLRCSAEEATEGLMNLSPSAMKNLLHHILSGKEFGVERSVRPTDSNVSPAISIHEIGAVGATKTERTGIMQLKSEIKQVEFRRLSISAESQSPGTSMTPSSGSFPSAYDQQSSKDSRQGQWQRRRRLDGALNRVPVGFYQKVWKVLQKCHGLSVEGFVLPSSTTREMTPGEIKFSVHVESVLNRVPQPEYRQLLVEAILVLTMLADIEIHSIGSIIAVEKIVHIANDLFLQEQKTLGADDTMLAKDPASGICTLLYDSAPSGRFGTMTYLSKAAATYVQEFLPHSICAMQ
UniProt Q8WXW3: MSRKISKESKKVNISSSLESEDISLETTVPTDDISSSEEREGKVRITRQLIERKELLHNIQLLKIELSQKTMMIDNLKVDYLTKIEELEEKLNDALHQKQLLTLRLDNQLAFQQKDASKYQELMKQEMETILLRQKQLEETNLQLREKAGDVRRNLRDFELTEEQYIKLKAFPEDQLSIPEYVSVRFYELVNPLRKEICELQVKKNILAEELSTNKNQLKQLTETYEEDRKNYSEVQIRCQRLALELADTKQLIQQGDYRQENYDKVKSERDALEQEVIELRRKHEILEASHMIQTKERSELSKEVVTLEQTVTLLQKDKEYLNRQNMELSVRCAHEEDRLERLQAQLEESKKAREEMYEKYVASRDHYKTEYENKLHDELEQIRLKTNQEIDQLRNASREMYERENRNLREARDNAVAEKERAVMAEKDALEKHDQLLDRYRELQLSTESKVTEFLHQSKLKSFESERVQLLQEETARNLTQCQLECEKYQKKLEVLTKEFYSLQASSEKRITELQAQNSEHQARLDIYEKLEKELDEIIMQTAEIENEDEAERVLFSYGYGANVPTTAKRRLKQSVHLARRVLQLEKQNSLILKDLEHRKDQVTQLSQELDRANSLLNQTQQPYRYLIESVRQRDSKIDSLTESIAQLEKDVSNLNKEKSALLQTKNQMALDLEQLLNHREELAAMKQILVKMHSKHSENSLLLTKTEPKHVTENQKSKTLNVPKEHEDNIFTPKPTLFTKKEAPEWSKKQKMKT
UniProt Q9NRD5, whole entry: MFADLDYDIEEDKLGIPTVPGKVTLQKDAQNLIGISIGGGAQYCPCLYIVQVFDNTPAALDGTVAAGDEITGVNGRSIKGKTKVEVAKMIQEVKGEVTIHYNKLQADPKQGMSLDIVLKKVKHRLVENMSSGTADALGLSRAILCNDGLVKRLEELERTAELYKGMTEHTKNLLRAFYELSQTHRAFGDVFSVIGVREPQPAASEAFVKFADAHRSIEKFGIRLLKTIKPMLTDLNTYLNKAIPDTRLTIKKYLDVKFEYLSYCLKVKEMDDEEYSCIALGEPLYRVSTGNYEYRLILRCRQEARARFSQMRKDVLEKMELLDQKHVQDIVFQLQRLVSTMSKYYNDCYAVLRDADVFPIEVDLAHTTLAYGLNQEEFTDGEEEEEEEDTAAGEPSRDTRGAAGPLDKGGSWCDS
UniProt O15067: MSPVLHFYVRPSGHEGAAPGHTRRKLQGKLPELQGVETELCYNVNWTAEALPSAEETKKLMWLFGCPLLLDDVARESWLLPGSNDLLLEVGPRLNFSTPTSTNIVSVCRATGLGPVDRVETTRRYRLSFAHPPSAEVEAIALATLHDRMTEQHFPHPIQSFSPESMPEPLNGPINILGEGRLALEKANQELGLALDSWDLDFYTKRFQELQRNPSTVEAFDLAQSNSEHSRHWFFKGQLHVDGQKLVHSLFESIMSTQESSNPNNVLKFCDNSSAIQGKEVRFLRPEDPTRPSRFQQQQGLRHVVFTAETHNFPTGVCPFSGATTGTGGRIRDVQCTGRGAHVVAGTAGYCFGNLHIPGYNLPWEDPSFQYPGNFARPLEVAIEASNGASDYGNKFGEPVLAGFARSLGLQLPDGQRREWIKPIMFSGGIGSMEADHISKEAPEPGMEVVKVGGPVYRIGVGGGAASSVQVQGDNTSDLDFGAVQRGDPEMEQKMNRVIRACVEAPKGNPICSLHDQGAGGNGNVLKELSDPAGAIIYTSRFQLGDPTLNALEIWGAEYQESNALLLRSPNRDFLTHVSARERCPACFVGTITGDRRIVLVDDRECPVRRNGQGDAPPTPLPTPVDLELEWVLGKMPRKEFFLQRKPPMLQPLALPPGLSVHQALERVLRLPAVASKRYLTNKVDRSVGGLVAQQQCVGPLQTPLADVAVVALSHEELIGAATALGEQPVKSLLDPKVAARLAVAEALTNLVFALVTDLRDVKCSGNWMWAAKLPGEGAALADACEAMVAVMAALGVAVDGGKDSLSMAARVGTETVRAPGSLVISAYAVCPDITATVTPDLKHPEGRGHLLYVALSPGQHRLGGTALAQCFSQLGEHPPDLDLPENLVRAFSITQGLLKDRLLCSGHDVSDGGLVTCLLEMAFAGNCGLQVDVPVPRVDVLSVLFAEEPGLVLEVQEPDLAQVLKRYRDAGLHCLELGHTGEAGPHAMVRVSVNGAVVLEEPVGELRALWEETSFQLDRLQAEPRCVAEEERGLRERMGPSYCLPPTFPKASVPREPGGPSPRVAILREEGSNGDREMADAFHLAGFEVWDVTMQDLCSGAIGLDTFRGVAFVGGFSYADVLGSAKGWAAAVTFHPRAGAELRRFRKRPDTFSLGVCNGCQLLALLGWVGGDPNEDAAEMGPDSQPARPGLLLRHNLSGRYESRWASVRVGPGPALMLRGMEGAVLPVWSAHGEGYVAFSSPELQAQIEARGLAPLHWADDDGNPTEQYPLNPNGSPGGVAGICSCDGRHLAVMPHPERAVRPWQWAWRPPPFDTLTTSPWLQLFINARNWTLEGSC
UniProt Q8IWS0: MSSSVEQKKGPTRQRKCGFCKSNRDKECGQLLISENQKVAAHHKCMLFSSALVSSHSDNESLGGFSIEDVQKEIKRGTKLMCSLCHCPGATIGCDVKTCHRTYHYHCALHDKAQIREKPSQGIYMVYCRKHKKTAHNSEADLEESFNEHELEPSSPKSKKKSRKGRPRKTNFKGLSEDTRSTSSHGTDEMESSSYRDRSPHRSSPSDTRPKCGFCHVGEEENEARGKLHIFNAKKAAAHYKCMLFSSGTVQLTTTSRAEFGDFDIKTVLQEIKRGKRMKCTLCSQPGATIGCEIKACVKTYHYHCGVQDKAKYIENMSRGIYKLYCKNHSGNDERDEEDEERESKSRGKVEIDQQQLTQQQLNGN
UniProt P00558: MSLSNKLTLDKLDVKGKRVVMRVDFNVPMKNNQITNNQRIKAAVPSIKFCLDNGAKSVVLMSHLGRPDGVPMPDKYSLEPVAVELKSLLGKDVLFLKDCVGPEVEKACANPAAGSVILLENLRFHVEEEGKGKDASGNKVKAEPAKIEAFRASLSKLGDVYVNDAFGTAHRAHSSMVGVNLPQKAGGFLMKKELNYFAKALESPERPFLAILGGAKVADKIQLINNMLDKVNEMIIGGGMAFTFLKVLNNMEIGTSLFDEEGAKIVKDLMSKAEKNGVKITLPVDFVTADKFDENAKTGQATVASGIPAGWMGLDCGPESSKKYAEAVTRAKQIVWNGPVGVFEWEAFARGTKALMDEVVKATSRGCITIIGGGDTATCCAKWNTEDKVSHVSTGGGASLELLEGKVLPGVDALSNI
UniProt Q96GD0: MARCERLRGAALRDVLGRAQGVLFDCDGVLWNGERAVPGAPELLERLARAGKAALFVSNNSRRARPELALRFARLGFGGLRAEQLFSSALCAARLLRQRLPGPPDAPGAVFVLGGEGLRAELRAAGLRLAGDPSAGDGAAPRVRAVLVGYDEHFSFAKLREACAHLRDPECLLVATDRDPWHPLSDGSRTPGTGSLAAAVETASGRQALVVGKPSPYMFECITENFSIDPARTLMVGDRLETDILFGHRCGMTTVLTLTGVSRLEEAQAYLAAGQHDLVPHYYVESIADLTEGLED

These targets were tested with CC1Cc2ccccc2N1C(=O)C1CCCN(C1)C(=O)CCl (mixture of isomers) [TRIM25 ligand 11 (diastereomer mixture)] (assay: probe-labelled cysteine peptide fold change vs DMSO (competition) (log2 fold change); higher = less target engagement (more negative = stronger competition)). Conditions: 10 µM; THP-1; incubation time: 4 h.
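Further: competitive chemoproteomic profiling in live THP-1 cells with an iodoacetamide desthiobiotin (IA-DTB) probe, comparing probe-labelled peptide intensities in compound-treated cells against DMSO-treated controls.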

| Target | probe-labelled cysteine peptide fold change |
| --- | --- |
| PELP1_Q8IZL8_191_DISMNHLPGLLTSLLGLRPECEQSALEGMK (UniProt Q8IZL8) | -0.0195 |
| PGD_P52209_171_VGTGEPCCDWVGDEGAGHFVK (UniProt P52209) | 0.0657 |
| PHF14_O94880_495_EGLLSEAAAEEDIADPFFAYCK (UniProt O94880) | -0.217 |
| PHKA1_P46020_697_FQAAVQTTCDLMSLVTK (UniProt P46020) | -0.0847 |
| PIBF1_Q8WXW3_199_EICELQVK (UniProt Q8WXW3) | -0.112 |
| PHIP_Q8WWQ0_79_HLAPDHLLQICHR (UniProt Q8WWQ0) | 0.0168 |
| PICK1_Q9NRD5_145_AILCNDGLVK (UniProt Q9NRD5) | 0.096 |
| PFAS_O15067_1027_CVAEEER (UniProt O15067) | -0.0521 |
| PHF6_Q8IWS0_212_CGFCHVGEEENEAR (UniProt Q8IWS0) | 0.072 |
| PGK1_P00558_379+380_GCITIIGGGDTATCCAK (UniProt P00558) | 0.102 |
| PGD_P52209_289_CLSSLK (UniProt P52209) | 0.144 |
| PECAM1_P16284_386_SDSGTYICTAGIDK (UniProt P16284) | -0.00831 |
| PHF6_Q8IWS0_85_LMCSLCHCPGATIGCDVK (UniProt Q8IWS0) | 0.176 |
| PHF14_O94880_754_LHYHLGCLDPPLTR (UniProt O94880) | 0.0426 |
| PDXP_Q96GD0_171_EACAHLRDPECLLVATDRDPWHPLSDGSR (UniProt Q96GD0) | -0.112 |
| PHIP_Q8WWQ0_1692_KLQYAKPEDLEQNNVHPIRDEVLPSSTCNFLSETNNVK (UniProt Q8WWQ0) | 0.116 |

As a short view, part of the list above.

| Target | probe-labelled cysteine peptide fold change |
| --- | --- |
| PHF6_Q8IWS0_85_LMCSLCHCPGATIGCDVK (UniProt Q8IWS0) | 0.176 |
| PHF14_O94880_754_LHYHLGCLDPPLTR (UniProt O94880) | 0.0426 |
| PDXP_Q96GD0_171_EACAHLRDPECLLVATDRDPWHPLSDGSR (UniProt Q96GD0) | -0.112 |
| PHIP_Q8WWQ0_1692_KLQYAKPEDLEQNNVHPIRDEVLPSSTCNFLSETNNVK (UniProt Q8WWQ0) | 0.116 |
